Here are results for 40 molecules from PubChem BioAssay AID493014 (National Center for Advancing Translational Sciences (NCATS), 2011).

By AC50 is commonly meant the concentration at which the activity in the assay is half-maximal.

This assay in a line: qHTS Assay to Find Inhibitors of Chronic Active B-Cell Receptor Signaling. The following applies: ABC-DLBCL IkBa-CBG/CBR reporter, luminescence ratio (green luciferase fused to IkBa over red control in TMD8 lymphoma cells), 4 h. In a few lines: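 TMD8 ABC-DLBCL cells carrying doxycycline-inducible green luciferase fused to IkappaBalpha plus unfused red luciferase were exposed to compounds (up to 46 uM) for 4 hrs at 37C. Activity came from the overlap-corrected green/red luminescence ratio.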
(In general: In qHTS, concentration-response curves come from the screen itself.)

[1] abbreviates: measured here: CBR red luminescence, cell number.
The mark [2] stands for this setting: measured here: IkBa-CBG green luminescence.

Structures are written as SMILES. The list shows a part of the results. The main result of the screen is listed elsewhere. These columns were measured beside it and carry no call. Compounds called inactive in the main read-out are mostly missing here. The note in brackets gives the kind of curve behind each potency; many fits are weak.

As for `O=C(CCSc1nnc(-c2ccncc2)o1)Nc1ccccc1`, the AC50 under setting [1] is 2.59 µM [falling, partial curve, poor fit].
On the same count and under the same terms, the same measure for `CCn1c(=O)c(C(=O)NCc2ccccn2)c(O)c2ccccc21`: 8.91 µM [falling, partial curve]; for `CC(NC(=O)CCNS(=O)(=O)c1ccccc1)c1ccccc1` (stereo not drawn): 35.5 µM [falling, single point].
The same measure, in the same setting: the same measure for `COc1ccccc1/C=C/C(=O)OC(C)CN1CCOCC1` (stereo not drawn): 0.631 µM [rising, full curve, poor fit].
As for `CCCCOc1ccc2c(C)cc(=O)oc2c1OCCCC`, the AC50 under setting [1] was 18.4 µM [rising, partial curve] and the concentration at half-maximal activity (AC50) under setting [2] was 23.1 µM [falling, partial curve, poor fit].
As for `Cc1[nH]c2ccccc2c1C(=O)CSc1n[nH]c(N)n1`, under setting [1], the AC50 is 35.5 µM [falling, single point].
Still for that read-out and setting: the same measure for `Cc1cn(-c2cc(C(=O)Nc3ccc(C)c(NC(=O)C(=O)c4c[nH]c5ccccc45)c3)cc(C(F)(F)F)c2)cn1`: 1.78 µM [falling, full curve, poor fit]; for `Cc1sc2nc(SCc3ccc(C(=O)O)cc3)n(Cc3ccco3)c(=O)c2c1C`: 6.31 µM [falling, full curve, poor fit].
On to `CC1=NN(C(N)=S)C(=O)C1N=Nc1ccc([N+](=O)[O-])cc1` (stereo not drawn), for which the AC50 was 1.26 µM [falling, partial curve] under setting [1] and 1 µM [falling, full curve, poor fit] under setting [2].
For `c1ccc([C@H]2CN3C(=N2)Sc2ccccc23)cc1`, the half-maximal activity concentration (AC50) under setting [1] was 16.4 µM [falling, single point].
Still for that read-out and setting: the same measure for `CCc1ccc(/C=N/NC(=O)c2c[nH]c3ccccc23)s1`: 16.4 µM [falling, single point]; for `CCOc1ccc(NC(=S)c2ccncc2)cc1`: 29.1 µM [rising, single point]; for `O=C(/C=C/c1ccco1)N1CCc2ccccc21`: 15.8 µM [falling, single point].
Regarding `O=C(CSc1ncnc2sc3c(c12)CCCC3)N1CCC(c2noc3ccc(F)cc23)CC1`, the AC50 under setting [1] was 2.06 µM [falling, single point].
Same read-out and setting: the same measure for `CC1(C)Cc2c(sc3c2c(=N)n(Cc2ccco2)c(=O)n3CC(=O)Nc2cccc(Cl)c2)CO1`: 7.94 µM [falling, partial curve, poor fit].
For `COc1ccc(CC(=O)Nc2nnc(C(C)C)s2)cc1OC`, the AC50 under setting [1] was 22.4 µM [rising, single point].
On the same count and under the same terms, under `CCOc1cc(-c2c(C)c(CC)nc(N)c2C#N)ccc1O` stands 7.08 µM [falling, partial curve, poor fit]; under `Cc1cc(N/N=C/c2ccc(O)cc2)c2cccc(C)c2n1`, 35.5 µM [falling, single point].
For the molecule `N#C/C(=C\c1ccc(O)c(O)c1)C(=O)NCCCc1ccccc1`, the AC50 under setting [1] was 8.91 µM [falling, partial curve].
Same read-out and setting: under `NNC(=O)c1cccn(Cc2cccc(C(F)(F)F)c2)c1=O` stands 1.58 µM [falling, partial curve, poor fit].
Same read-out and setting: under `Cc1ccc(SCc2[nH]nc3c2C2(CCSCC2)C(C#N)=C(N)O3)cc1` stands 2.31 µM [falling, partial curve, poor fit]; under `Cc1ccc(NC(=O)c2cc3ccccc3o2)cc1Cl`, 7.94 µM [falling, partial curve]; under `NC(=O)c1ccc(-c2nnn(CC(=O)N(C3CCCCC3)C3CCS(=O)(=O)C3)n2)cc1` (stereo not drawn), 16.4 µM [falling, partial curve, poor fit].
Still for that read-out and setting: the same measure for `Cc1cc(/C=C2\C(=O)NN(c3ccccc3)C2=O)c(C)n1-c1ccccc1O`: 12.6 µM [falling, partial curve]; for `COc1ccc(S(=O)(=O)N2CCC(C(=O)OCC(=O)c3ccccc3)CC2)cc1[N+](=O)[O-]`: 2.31 µM [rising, partial curve, poor fit].
Turning to `CCN(C(=O)COC(=O)/C=C/c1ccc(F)cc1)C1CCCCC1`, the AC50 under setting [1] was 6.51 µM [rising, partial curve, poor fit].
Same read-out and setting: under `Cc1ccc(NC(=O)c2ccccc2)cc1` stands 11.2 µM [falling, partial curve, poor fit]; under `O=C(NN=Cc1ccccc1OC(F)F)c1cccc(S(=O)(=O)N2CCCC2)c1`, 16.4 µM [falling, partial curve, poor fit].
Turning to `Cn1cc(C(=O)c2ccc(Cl)cc2)cc1-c1nc2ccccc2n1C`, the AC50 under setting [1] is 35.5 µM [falling, single point].
Same read-out and setting: under `Cc1ccccc1OCC(=O)N/N=C/c1sc(=O)n(Cc2cccc(C(=O)O)c2)c1Cl` stands 35.5 µM [falling, single point]; under `CCn1c(CNC(=O)c2ccccc2Cl)cc2ccccc21`, 10 µM [rising, partial curve, poor fit]; under `CC(C)(C)CN1C(N)=NC[C@H]1Cc1ccc(O)cc1`, 35.5 µM [rising, single point].
The same measure, in the same setting: the same measure for `CCOC(=O)C1=C(COC(=O)CCNS(=O)(=O)c2ccc(C)c(C)c2)NC(=O)NC1C` (stereo not drawn): 16.4 µM [rising, partial curve, poor fit].
On to `C(=N\Nc1nc2ccccc2s1)/c1ccccn1`, for which the AC50 reads like this: under setting [1], 8.91 µM [falling, partial curve]; under setting [2], 2.82 µM [falling, full curve, poor fit].
Consider `C/C(=N/NC(=O)c1cccs1)c1cccs1`, for which the AC50 under setting [1] was 14.1 µM [falling, single point].
Still for that read-out and setting: under `N=c1c2ccccc2nnn1-c1cccc(C(F)(F)F)c1` stands 3.16 µM [rising, partial curve]; under `CCCOC(=O)C1=C(C)NC2=C(C(=O)C(C(=O)OC)C(C)C2)C1c1ccc(N(CC)CC)cc1` (stereo not drawn), 29.1 µM [rising, single point].
Same read-out and setting: the same measure for `CCOC(=O)c1c(-c2ccccc2)c2cc(OC)ccc2n1CCCN(C)C`: 12.6 µM [falling, partial curve]; for `CCOC(=O)c1c(-c2ccc(OC)cc2)cn2ccccc12`: 17.8 µM [falling, single point]; for `Cc1ccc(CN(C)C(=O)c2cccc(S(=O)(=O)N3CCc4ccccc43)c2)cc1`: 18.4 µM [falling, single point].
